This is an account of results in article PMC5438914 (SLAS discovery, 2016).

The subject of this data set is human embryonic kidney 293 cells (HEK-293). In words: MTT cytotoxicity test. The settings on record: HEK-293, MTT, 24 h. For orientation: Formazan colour is commonly taken as a measure of viable cells.

Regarding `CN[C@@H]1C[C@H]2O[C@@](C)([C@@H]1OC)n1c3ccccc3c3c4c(c5c6ccccc6n2c5c31)C(=O)NC4` [staurosporine, reference compound], the “IC50 (or CC50) for inhibition of cell growth” value came out at 3 ng/mL.
